Results reported in patent US20240123079A1 (Seagen Inc., priority 2021, published 2024).
Values after ≈ are worked out from the molar mass of the structure shown. At least one structure is not confirmed: it was looked up by name or label, or the drawing left a doubt.

Tested on: THP1-Dual™ reporter cells
Assay: THP1-Dual cell reporter assay (IRF-Lucia luciferase reporter)
Format: cell-based, human
Details: ADCs: drug linker conjugated to a targeted mAb, 48 h
Experimental: THP1-Dual™ Cell Reporter Assay
Potency of compounds and ADCs was evaluated using the THP1-Dual™ cells (InvivoGen PN: thpd-nfis [also referred to as THP1 dual reporter cells]), which contain an IRF-Lucia luciferase reporter. Cells were cultured in RPMI-1640 (Gibco) with 10% heat-inactivated fetal bovine serum, Pen-Strep (100 U/mL-100 μg/mL, Gibco), HEPES (10 mM, Gibco)), sodium pyruvate (1 mM, Gibco), MEM non-essential amino acids (1×, Gibco), GlutaMAX (1×, Gibco), and beta-mercaptoethanol (55 μM, Gibco). […] To measure Lucia reporter signal, 10 μL of the supernatant was combined with 40 μL of QUANTI-Luc™ Luminescence assay reagent (Invivogen PN: rep-qlc1) in a 96-well clear flat bottom tissue culture-treated black polystyrene plate (Corning Costar #3603) and read on a Perkin Elmer Envision plate reader.
STING agonist compounds were assessed for their ability to activate THP1-Dual™ reporter cells, a human monocytic cell line in which type I interferon (IRF) signaling can be monitored via a secreted luciferase reporter protein (Lucia). THP1-Dual™ cells were treated with increasing concentrations of the agonists for 24h, then supernatants were harvested and the Lucia reporter signal was quantified using QUANTI-Luc™ Luminescence assay reagent.

## CCn1nc(C)cc1C(=O)Nc1nc2cc(C(N)=O)ccc2n1C/C=C/Cn1c(NC(=O)c2cc(C)nn2CC)nc2cc(C(N)=O)cc(OCCCN(C)C(=O)CCCCCN3C(=O)C=CC3=O)c21 [Compound 131, (E)-1-(4-(5-carbamoyl-2-(1-ethyl-3-methyl-1H-pyrazole-5-carboxamido)-1H-benzo[d]imidazol-1-yl)but-2-en-1-yl)-7-(3-(6-(2,5-dioxo-2,5-dihydro-1H-pyrrol-1-yl)-N-methylhexanamido)propoxy)-2-(1-ethyl-3-methyl-1H-pyrazole-5-carboxamido)-1H-benzo[d]imidazole-5-carboxamide]
  EC50: 3.6 ng/mL (≈ 3.76 nM)
